Data as given in article PMC8486843, “SPOP mutation induces replication over-firing by impairing Geminin ubiquitination and triggers replication catastrophe upon ATR inhibition” (Nature Communications, 2021).

Sequences of proteins named here, by UniProt entry; tags and fusion partners are left off.
UniProt O43791: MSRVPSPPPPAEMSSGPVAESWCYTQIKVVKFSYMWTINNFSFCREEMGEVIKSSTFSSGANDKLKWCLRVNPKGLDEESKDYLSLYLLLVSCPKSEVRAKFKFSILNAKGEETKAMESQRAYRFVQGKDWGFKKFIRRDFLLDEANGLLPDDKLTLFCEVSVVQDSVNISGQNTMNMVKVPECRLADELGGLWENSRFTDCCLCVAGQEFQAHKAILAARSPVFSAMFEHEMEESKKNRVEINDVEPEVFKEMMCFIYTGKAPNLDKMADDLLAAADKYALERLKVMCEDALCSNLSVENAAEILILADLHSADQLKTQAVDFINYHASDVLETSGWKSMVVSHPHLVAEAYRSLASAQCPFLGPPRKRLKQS

Legend:
Flag-Geminin (human) = molecular target: T1, Flag-Geminin (human) (UniProt O75496); assay: affinity purification with mass spectrometry; 293T cells transfected with Flag-Geminin in the presence or absence of HA-Ub and Myc-SPOP; co-IP samples subjected to LC-MS (n = 1/group)
T1 sequence: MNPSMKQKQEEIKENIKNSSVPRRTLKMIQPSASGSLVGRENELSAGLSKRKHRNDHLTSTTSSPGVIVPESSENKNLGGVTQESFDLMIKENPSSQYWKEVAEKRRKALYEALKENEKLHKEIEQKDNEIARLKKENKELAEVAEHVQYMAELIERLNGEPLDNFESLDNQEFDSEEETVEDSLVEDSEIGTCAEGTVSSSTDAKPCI

SFB-SPOP (human) = SFB-SPOP (human) (UniProt O43791); assay: affinity purification with mass spectrometry; SFB-SPOP in 293T cells (DMSO, MMC, CPT, cisplatin or etoposide); NETN lysis buffer; tandem affinity purification on streptavidin beads and S tag beads, LC-MS

| Binder | binding (Flag-Geminin (human)) | binding (SFB-SPOP (human)) |
| --- | --- | --- |
| Cdt1 (protein, UniProt Q9H211 1-546) MEQRRVTDFFARRRPGPPRIAPPKLACRTPSPARPALRAPASATSGSRKRARPPAAPGRDQARPPARRRLRLSVDEVSSPSTPEAPDIPACPSPGQKIKKSTPAAGQPPHLTSAQDQDTISELASCLQRARELGARVRALKASAQDAGESCTPEAEGRPEEPCGEKAPAYQRFHALAQPGLPGLVLPYKYQVLAEMFRSMDTIVGMLHNRSETPTFAKVQRGVQDMMRRRFEECNVGQIKTVYPASYRFRQERSVPTFKDGTRRSDYQLTIEPLLEQEADGAAPQLTASRLLQRRQIFSQKLVEHVKEHHKAFLASLSPAMVVPEDQLTRWHPRFNVDEVPDIEPAALPQPPATEKLTTAQEVLARARNLISPRMEKALSQLALRSAAPSSPGSPRPALPATPPATPPAASPSALKGVSQDLLERIRAKEAQKQLAQMTRCPEQEQRLQRLERLPELARVLRSVFVSERKPALSMEVACARMVGSCCTIMSPGEMEKHLLLLSELLPDWLSLHRIRTDTYVKLDKAADLAHITARLAHQTRAEEGL | binds | – |
| endogenous Geminin (protein, UniProt O75496 1-209) MNPSMKQKQEEIKENIKNSSVPRRTLKMIQPSASGSLVGRENELSAGLSKRKHRNDHLTSTTSSPGVIVPESSENKNLGGVTQESFDLMIKENPSSQYWKEVAEKRRKALYEALKENEKLHKEIEQKDNEIARLKKENKELAEVAEHVQYMAELIERLNGEPLDNFESLDNQEFDSEEETVEDSLVEDSEIGTCAEGTVSSSTDAKPCI | – | binds |

Results are given in words; binding and its absence hold for the method and conditions named. In cells and extracts the contact can be indirect. A yes stands for co-enrichment or nearness to the bait. Other partners may have been found. For some assays here: Sequences can lack the tags named with a protein.
